Experimental data published in paper PMC11199874.
These are yes or no findings as the source states them, for the method shown. In cells and extracts the contact can be indirect. Some entries that bind do so weakly or less than the wild type. For some assays here: Tags and fused reporters may be left off the sequences shown.

Sequences of proteins named here, by UniProt entry; tags and fusion partners are left off.
UniProt Q12774: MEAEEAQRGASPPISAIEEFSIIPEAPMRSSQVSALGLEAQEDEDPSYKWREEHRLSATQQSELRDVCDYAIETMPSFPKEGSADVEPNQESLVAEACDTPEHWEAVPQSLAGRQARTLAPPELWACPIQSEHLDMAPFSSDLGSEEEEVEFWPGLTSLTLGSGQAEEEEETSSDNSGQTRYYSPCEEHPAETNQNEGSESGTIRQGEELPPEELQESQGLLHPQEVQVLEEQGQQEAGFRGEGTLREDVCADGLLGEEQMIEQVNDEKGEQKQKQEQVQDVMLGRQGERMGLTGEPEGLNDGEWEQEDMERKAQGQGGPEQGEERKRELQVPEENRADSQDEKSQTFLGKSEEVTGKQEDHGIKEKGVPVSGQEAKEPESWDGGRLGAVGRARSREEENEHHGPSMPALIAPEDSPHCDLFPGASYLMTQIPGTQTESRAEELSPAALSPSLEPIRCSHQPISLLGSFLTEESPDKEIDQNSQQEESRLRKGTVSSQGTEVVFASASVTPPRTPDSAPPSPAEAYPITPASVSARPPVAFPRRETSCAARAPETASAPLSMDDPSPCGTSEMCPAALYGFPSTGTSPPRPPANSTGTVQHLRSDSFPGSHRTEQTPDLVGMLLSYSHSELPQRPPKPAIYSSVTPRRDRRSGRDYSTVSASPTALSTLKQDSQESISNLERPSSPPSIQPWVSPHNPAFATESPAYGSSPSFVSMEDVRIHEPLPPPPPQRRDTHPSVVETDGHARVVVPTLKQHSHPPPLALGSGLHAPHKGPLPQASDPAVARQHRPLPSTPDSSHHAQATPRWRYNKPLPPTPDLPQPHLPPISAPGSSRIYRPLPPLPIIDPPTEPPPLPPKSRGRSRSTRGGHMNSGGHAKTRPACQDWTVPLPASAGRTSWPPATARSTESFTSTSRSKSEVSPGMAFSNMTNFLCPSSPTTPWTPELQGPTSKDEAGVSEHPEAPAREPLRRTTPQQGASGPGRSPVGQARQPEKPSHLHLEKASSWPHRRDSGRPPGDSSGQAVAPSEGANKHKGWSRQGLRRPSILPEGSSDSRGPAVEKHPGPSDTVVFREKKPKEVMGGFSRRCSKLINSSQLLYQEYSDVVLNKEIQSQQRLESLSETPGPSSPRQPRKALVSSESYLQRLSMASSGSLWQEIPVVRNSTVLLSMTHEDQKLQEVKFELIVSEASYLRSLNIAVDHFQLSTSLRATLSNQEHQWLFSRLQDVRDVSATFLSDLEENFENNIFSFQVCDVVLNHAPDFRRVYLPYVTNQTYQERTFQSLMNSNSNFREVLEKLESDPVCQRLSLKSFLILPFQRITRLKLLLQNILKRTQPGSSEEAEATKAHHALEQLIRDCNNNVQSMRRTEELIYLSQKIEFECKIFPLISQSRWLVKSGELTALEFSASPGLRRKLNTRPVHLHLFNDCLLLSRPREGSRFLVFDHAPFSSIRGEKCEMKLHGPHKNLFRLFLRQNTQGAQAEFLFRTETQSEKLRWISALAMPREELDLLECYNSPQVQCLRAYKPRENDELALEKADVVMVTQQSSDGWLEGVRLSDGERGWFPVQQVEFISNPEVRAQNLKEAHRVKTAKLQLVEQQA

Key:
[1] = biological target: GST-ARHGEF5 expressed in HEK293T cells (not stated (human or rodent cDNA cloned)) (UniProt Q12774); test: pull-down; HEK293T cells transfected with GST-ARHGEF5, HA-Drebrin E and HA-Cdk5 together; lysate on glutathione sepharose beads; immunoblot with anti-GST and anti-HA
[2] = biological target: T1, GST-Drebrin E (UniProt Q16643); test: pull-down; HEK293T cells co-transfected with one GST-tagged and one HA-tagged construct; lysate on glutathione sepharose beads, 4°C, 6 h to overnight; 20 mM Tris pH 7.4, 150 mM NaCl, 1% NP-40; immunoblot with anti-HA and anti-GST
T1 sequence: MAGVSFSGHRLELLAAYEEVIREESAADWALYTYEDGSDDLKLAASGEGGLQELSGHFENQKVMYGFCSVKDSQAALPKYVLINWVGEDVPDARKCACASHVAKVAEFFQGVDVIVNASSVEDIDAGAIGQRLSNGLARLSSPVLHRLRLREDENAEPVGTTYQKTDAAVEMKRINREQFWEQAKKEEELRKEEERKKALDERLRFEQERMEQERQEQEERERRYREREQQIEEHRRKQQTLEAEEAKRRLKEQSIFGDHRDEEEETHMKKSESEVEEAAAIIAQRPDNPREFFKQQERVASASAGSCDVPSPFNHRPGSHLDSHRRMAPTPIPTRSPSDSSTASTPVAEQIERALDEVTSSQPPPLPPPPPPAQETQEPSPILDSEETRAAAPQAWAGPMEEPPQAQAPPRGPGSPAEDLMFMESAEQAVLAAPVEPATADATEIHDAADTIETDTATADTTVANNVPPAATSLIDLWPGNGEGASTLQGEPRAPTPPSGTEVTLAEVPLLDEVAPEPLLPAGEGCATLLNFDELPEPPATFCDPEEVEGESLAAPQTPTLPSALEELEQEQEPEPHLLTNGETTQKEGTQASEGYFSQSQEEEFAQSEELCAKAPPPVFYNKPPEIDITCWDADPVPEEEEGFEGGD

binding [1] | binding [2] | Substance
binds | – | HA-Cdk5 (Cyclin-dependent kinase 5) (from UniProt Q00535 1-292) (enzyme)
– | binds | HA-ARHGEF5 (from UniProt Q12774 1-1597)
